In the assay the test system is HEK293A TEAD-LUC reporter. Briefly: TEAD-luciferase reporter activity (YAP activation), robust Z score vs plate; higher = stronger YAP/TEAD activation. Conditions: 24 h. (In a reporter assay the amount or activity of a reporter protein is the signal.)

Where a name gives a salt, the structure may show the parent alone. This is one part of the list. Repeats in this data set agree poorly, so a single value says little.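 In a drug-repurposing library screen, luminescence reads luciferase driven by eight TEAD-binding elements, stably integrated into human kidney-derived cells. Compounds scoring over five robust Z scores above the plate mean are called hits.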

`CC(=O)N[C@@H]1[C@@H](O[C@@H]2O[C@H](C(=O)O)[C@@H](O)[C@H](O)[C@H]2O)[C@@H](O)[C@@H](OS(=O)(=O)O)O[C@H]1O`: the TEAD-luciferase reporter activity was inactive: -0.474 (compound concentration: 200 nM) and inactive: -0.214 (compound concentration: 10 uM).
Consider `CC(/C=C/c1cccc(Oc2ccc(F)cc2)c1)N(O)C(N)=O` (configuration not stated), for which the TEAD-luciferase reporter activity (compound concentration: 200 nM) is inactive: -1.03, the TEAD-luciferase reporter activity (compound concentration: 2 uM) was inactive: -1.58 and the TEAD-luciferase reporter activity (compound concentration: 10 uM) was inactive: -1.03.
Regarding `CC(C)c1cccc2c1OC(C(C)C)C(=S)N2CC(=O)O` (configuration not stated), the TEAD-luciferase reporter activity was inactive: -0.675 (compound concentration: 200 nM), inactive: -1.06 (compound concentration: 2 uM) and inactive: -2.22 (compound concentration: 10 uM).
For `C#Cc1cccc(Nc2ncnc3cc(OC)c(OCCCN4CCOCC4)cc23)c1` the same measures were inactive: 0.0223, inactive: 1.18 and inactive: -0.828.
Take `O=C(NN1C(=O)[C@@H]2[C@@H]3C=C[C@@H]([C@H]4C[C@@H]34)[C@@H]2C1=O)c1ccc(C(F)(F)F)cc1` [tecovirimat]: the TEAD-luciferase reporter activity runs as follows: (compound concentration: 200 nM) inactive: -1.71; (compound concentration: 2 uM) inactive: -1.03; (compound concentration: 10 uM) inactive: -0.238.
In the case of `O=C1c2c(O)cc(O)cc2O[C@@H](c2ccc(O)c(O)c2)[C@@H]1O` [Taxifolin], the TEAD-luciferase reporter activity (compound concentration: 200 nM) was inactive: -0.834, the TEAD-luciferase reporter activity (compound concentration: 2 uM) was inactive: 0.615 and the TEAD-luciferase reporter activity (compound concentration: 10 uM) was inactive: 0.79.
As to `COc1cc(N)c(Cl)cc1C(=O)NCC1CCN(CCC(OC(N)=O)c2ccc(F)cc2)CC1` (configuration not stated) [Relenopride hydrochloride], the TEAD-luciferase reporter activity is inactive: 1.59 (compound concentration: 200 nM), inactive: 0.279 (compound concentration: 2 uM) and inactive: 0.427 (compound concentration: 10 uM).
With `C=C1CC/C=C(\C)CC[C@@H]2[C@@H]1CC2(C)C` [beta-Caryophyllene], the TEAD-luciferase reporter activity reads like this: (compound concentration: 200 nM) inactive: -0.778; (compound concentration: 2 uM) inactive: -0.847; (compound concentration: 10 uM) inactive: -0.201.
Regarding `[Cl][Ti]([Cl])([CH]1C=CC=C1)[CH]1C=CC=C1` [Titanocene dichloride], the TEAD-luciferase reporter activity is, setting by setting: (compound concentration: 200 nM) inactive: 0.846; (compound concentration: 2 uM) inactive: 0.576; (compound concentration: 10 uM) inactive: 1.1.
For `Cc1ccc(S(=O)(=O)N[C@@H](CNC(=O)c2cc3n(n2)CCCN(CCC2CCNCC2)C3=O)C(=O)O)cc1`, the TEAD-luciferase reporter activity (compound concentration: 200 nM) was inactive: -1.25, the TEAD-luciferase reporter activity (compound concentration: 2 uM) was inactive: 0.516 and the TEAD-luciferase reporter activity (compound concentration: 10 uM) was inactive: 0.443.
Turning to `O=C(O)c1cc(O)c(O)c(O)c1` [gallic acid], the TEAD-luciferase reporter activity is inactive: -0.207 (compound concentration: 200 nM), inactive: -1.63 (compound concentration: 2 uM) and inactive: -0.695 (compound concentration: 10 uM).
For `COc1nc(NCCc2ccc(Cl)cc2Cl)cc(-c2cccc(C(C)(C)C(=O)O)c2)n1`, the TEAD-luciferase reporter activity reads like this: (compound concentration: 200 nM) inactive: -0.277; (compound concentration: 2 uM) inactive: 0.368; (compound concentration: 10 uM) inactive: 4.31.
With `CNC(=O)c1ccc(Oc2ccc3c(c2)CCN(C2CCC2)C3)nc1`, the TEAD-luciferase reporter activity was inactive: -1.74 (compound concentration: 200 nM), inactive: -0.825 (compound concentration: 2 uM) and inactive: 0.14 (compound concentration: 10 uM).
Regarding `CC1CCC(O)C/C1=C\C=C1/CCCC2(C)C1CCC2C(C)/C=C/C(C)C(C)C` (configuration not stated), the TEAD-luciferase reporter activity by setting is: (compound concentration: 200 nM) inactive: -0.0413; (compound concentration: 2 uM) inactive: -1.89; (compound concentration: 10 uM) inactive: -1.17.
In the case of `CCNC(C)CN1CCc2c(c(=O)oc3ccccc23)C1` (configuration not stated), the TEAD-luciferase reporter activity is, setting by setting: (compound concentration: 200 nM) inactive: -1.06; (compound concentration: 2 uM) inactive: -0.123; (compound concentration: 10 uM) inactive: -1.47.
As for `N#CN/C(=N\CCCCCCOc1ccc(Cl)cc1)Nc1ccncc1`, the TEAD-luciferase reporter activity (compound concentration: 200 nM) is inactive: -1.18, the TEAD-luciferase reporter activity (compound concentration: 2 uM) was inactive: 4.39 and the TEAD-luciferase reporter activity (compound concentration: 10 uM) is active: 18.6.
In the case of `c1ccc(-c2cc(-c3ccncc3)c(N3CCN(c4ncccn4)CC3)nn2)cc1`, the TEAD-luciferase reporter activity (compound concentration: 200 nM) was inactive: -1.05, the TEAD-luciferase reporter activity (compound concentration: 2 uM) is inactive: -1.18 and the TEAD-luciferase reporter activity (compound concentration: 10 uM) was inactive: -0.278.
For `COCCCC(NC(=O)[C@@H]1CCCN1C(=O)[C@@H](Cc1ccccc1)NC(=O)OCc1ccccc1)B1OC(C)(C)C(C)(C)O1` (some centres not stated), the TEAD-luciferase reporter activity by setting is: (compound concentration: 200 nM) inactive: -0.692; (compound concentration: 2 uM) inactive: -0.481; (compound concentration: 10 uM) inactive: -1.34.
For `O=C(CO)N1CCC(c2[nH]nc(-c3ccc(Cl)cc3F)c2-c2ccncn2)CC1` the same measures were inactive: -1.09, inactive: -1.05 and inactive: 2.39.
With `COc1cccc(OCc2cc(C)ccn2)c1-c1ccc2c(c1)CCNCC2`, the TEAD-luciferase reporter activity is, setting by setting: (compound concentration: 200 nM) inactive: -0.931; (compound concentration: 2 uM) inactive: -0.566; (compound concentration: 10 uM) inactive: 1.94.
Turning to `CCN(CC)CCCN1c2ccccc2Sc2ccc(Cl)cc21` [Chlorproethazine HCl], the TEAD-luciferase reporter activity runs as follows: (compound concentration: 200 nM) inactive: -0.523; (compound concentration: 2 uM) inactive: -0.0718; (compound concentration: 10 uM) inactive: 0.66.
`CN1CCN(C2CCN(C(=O)[C@H](CC(=O)N3CCC(N4CCc5ccccc5NC4=O)CC3)Cc3cc(Cl)c(N)c(C(F)(F)F)c3)CC2)CC1`: the TEAD-luciferase reporter activity was inactive: -0.892 (compound concentration: 200 nM), inactive: -0.955 (compound concentration: 2 uM) and inactive: -0.575 (compound concentration: 10 uM).
Take `CC(C)(C)NC[C@@H](O)COc1ccccc1C1CCCC1` [penbutolol]: the TEAD-luciferase reporter activity reads like this: (compound concentration: 200 nM) inactive: -1.74; (compound concentration: 2 uM) inactive: -0.566; (compound concentration: 10 uM) inactive: 3.36.
With `COc1ccc2c(c1)[C@]1(CC1c1ccc3c(/C=C/c4ccc(CN5C[C@@H](C)O[C@@H](C)C5)cc4)n[nH]c3c1)C(=O)N2` (some centres not stated), the TEAD-luciferase reporter activity by setting is: (compound concentration: 200 nM) inactive: 0.152; (compound concentration: 2 uM) inactive: -0.0429; (compound concentration: 10 uM) inactive: 2.41.
Take `O=[N+]([O-])c1nccn1CC(O)CN1CCCCC1` (configuration not stated) [Pimonidazole]: the TEAD-luciferase reporter activity by setting is: (compound concentration: 200 nM) inactive: 1.47; (compound concentration: 2 uM) inactive: -0.484; (compound concentration: 10 uM) inactive: -0.0898.
For `CO/N=C1/CN(c2nc3c(cc2F)c(=O)c(C(=O)O)cn3C2CC2)CC1CN` (configuration not stated) [Gemifloxacin mesilate] the same measures were inactive: 1.23, inactive: -0.233 and inactive: -0.267.

Source of the values: the supplement of paper PMC10735217.
